Here are results for 5 molecules from paper PMC4199493.

Results are given in words; binding and its absence hold for the method and conditions named. For some assays here: In cells and extracts the contact can be indirect. Some entries that bind do so weakly or less than the wild type. For some assays here: Where a sequence is shown, tags or fusion partners need not be part of it.

Experiment [1] deals with T1, AtSUN2 (Arabidopsis thaliana) (UniProt Q9SG79).
T1 sequence: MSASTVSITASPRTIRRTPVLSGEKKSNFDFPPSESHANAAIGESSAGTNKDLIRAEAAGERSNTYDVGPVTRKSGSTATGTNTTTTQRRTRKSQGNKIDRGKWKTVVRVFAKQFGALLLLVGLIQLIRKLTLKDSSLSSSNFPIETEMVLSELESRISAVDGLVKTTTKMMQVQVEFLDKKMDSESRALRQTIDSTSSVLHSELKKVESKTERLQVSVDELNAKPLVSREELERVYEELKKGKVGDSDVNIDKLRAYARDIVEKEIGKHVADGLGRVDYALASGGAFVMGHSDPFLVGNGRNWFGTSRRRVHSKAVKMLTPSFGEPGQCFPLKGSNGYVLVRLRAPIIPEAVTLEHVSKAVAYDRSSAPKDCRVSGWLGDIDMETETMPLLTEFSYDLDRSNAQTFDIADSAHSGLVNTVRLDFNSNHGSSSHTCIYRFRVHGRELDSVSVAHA
Put plainly: two-hybrid; Gal4 fusions in pGADT7-GW and pGBKT7-GW, each protein as bait or as prey, mating of the AH109 and Y187 yeast strains; cells spotted on selective medium.

The target in experiment [2] is T2, AtSUN1 (Arabidopsis thaliana) (UniProt Q9FF75).
T2 sequence: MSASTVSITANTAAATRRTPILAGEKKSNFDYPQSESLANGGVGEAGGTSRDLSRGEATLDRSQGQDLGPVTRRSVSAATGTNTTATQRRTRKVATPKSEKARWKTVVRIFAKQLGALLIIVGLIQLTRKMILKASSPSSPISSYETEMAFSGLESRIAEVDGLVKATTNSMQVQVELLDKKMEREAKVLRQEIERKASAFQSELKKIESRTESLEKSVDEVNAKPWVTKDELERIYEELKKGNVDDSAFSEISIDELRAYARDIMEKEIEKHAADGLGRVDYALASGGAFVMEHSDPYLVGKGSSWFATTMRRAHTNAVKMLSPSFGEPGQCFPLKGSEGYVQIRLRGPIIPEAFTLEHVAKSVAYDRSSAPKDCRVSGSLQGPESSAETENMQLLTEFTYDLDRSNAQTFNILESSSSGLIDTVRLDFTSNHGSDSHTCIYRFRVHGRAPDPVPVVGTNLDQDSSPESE
Described as above.

Experiment [3] has as its target T3, AtWIP1 (Arabidopsis thaliana) (UniProt Q8GXA4).
T3 sequence: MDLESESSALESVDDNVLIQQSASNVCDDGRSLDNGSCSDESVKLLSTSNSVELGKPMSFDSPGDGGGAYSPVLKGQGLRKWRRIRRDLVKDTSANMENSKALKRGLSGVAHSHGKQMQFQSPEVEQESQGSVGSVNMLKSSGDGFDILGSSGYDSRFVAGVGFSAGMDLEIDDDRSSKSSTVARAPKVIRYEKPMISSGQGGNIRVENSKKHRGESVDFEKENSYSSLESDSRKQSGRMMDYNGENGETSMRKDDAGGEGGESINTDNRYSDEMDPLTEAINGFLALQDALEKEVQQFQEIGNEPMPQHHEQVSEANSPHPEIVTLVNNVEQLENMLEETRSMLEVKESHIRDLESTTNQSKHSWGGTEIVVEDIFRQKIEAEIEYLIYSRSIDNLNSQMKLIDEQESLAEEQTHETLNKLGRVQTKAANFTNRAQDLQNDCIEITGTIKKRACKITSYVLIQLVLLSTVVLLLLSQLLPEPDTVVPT
The experiment is described as above.

The target in experiment [4] is T4, YFP^N-AtWIP1 (Arabidopsis thaliana) (UniProt Q8GXA4).
T4 sequence: T3 sequence
Put plainly: split reporter; split YFP fusions (pBiFP vectors) transiently co-expressed in N. benthamiana leaves by Agrobacterium infiltration, with the P19 suppressor; all eight compatible combinations assayed; YFP fluorescence by confocal microscopy three days after infiltration.

B1: AtWIP2 (protein, UniProt Q9FH18 1-509)
chain: MDLESESSVLESVEDNNGLIGDLDKELNSPVETSPLISKGFGLRKWKRRLRRDLVKDDTSVSMENSKALKRVLSGLVDPNAKQMHLPGPEVRQDSVGSVGSVNSVVGFVMGGESYGNGLAFAAGVDSDNSEDRSSTMSHSWDKHRGKVSGGKSVISSGDSSQQRKSSVEKSNKLRGERIKIEKENSHSSMESADSRSSNFVFMQGASYSLSSREQGGRRMMDYDDENSDHDAHTSKRKDNVEEEEEETEDYSQGDCVEESQIKSNGSSDNLDPLIVAVNSFQTLQEALQKELQKFQELGKEEPITSLHDGGESSSCIHAGHEGASEASSSYRFGSEKMGEMELTSLDSEILNLVNNVEHLEIKLEEAKRILEVKETQIRELESTINVSETCNGGTEIGIEDIFQQKVEAEIEYIIFSRSVGNLKRRIKLIEEEKTLGLSKLDKAETKAENLKNQAQDLQNHCVEITEIQEVECLKKRAFKTTRCLLLQLGLLFILYYSLLPEPEIAVPT
B1: the binding result in experiment [1] and in experiment [2] was “binds” throughout.

B2: AtWIP1 (protein, UniProt Q8GXA4 1-489)
chain: T3 sequence
On to B2, for which the binding result in experiment [1] and in experiment [2] was “binds” each time.

B3: AtWIP3 (protein, UniProt Q94AV5 1-459)
chain: MNESVPDSVEDNGNSVPANGLLVLPDNDHEEGGVGSPQRSNSVESPGGSVHSTRKGFGLKKWRRIKRDGPVRDEAAPVDDGSKLLKRGLAGLVNPPSKHVEFSSVEARQSSEGSVGSVNMVHHPGVANGFSPDIGCMFAVGQAFEKSEEHSGNTIGGKNVVGGKVVSGSQEKLWSDTIKRASEERGDIEKEKPCSSLDSDLRSSDFVFSTGSVSVGNHGEKDERLTMNYIGGFSNEGQVKEEVQTYSRSENGNKEDDGESKKNNNHWADKDALADSIRSFAVLQEVLWKEVQSFQELGKESVLLHSNTDELSSDQPSHQNCKEDNSTSSGSKALILKEKVKLLEHKLEEARAALEAKEARIQELENSKIESELECIFQRKIETEIEHLMLTRSLSSLQVLQETKKLHSLKEDPVSNRGNILGKTCKLGFYILTQLILLVSILRFLVLQFSPASRLVIPT
Turning to B3, the binding result in experiment [1] and in experiment [2] was “binds” each time.

B4: AtPSS1 (protein, UniProt Q8GW44 1-465)
chain: MSNVTVCARFRPRSSKEMRDPSRDGVCARPIDAETFVFQDDKEDEFTFSLDRVFYEDSTQAAVYEFLALPIMRDAVNGINGTIITYGQTGAGKTYSMEGPGIQDCDEHNKGLLPRVVHGMFEQISSSNDIARYTVKLSMVEIYMEKVRDLLDLSKANIQIKENKTQGILLSGVTEVPVSDSVEALQHLCTGLANRAVGETQMNMSSSRSHCAYLFTIQQDSVKDKRVKTGKLILVDLAGSEKADKTGAEGRVLEEAKTINKSLSALGNVINALTSGPSSKGNHIPYRDSKLTRILQDALGGNSRMALLCCCSPSTLNASETLSTLRFGMRAKHIKASPRASEVKSAKAQEEPSSVTKDEKCGRILEKMKERMSNEDIKMLEDVFIQEGIIFSLDSMAEVETVYEDIVSKTIQSLQQAVDELQQKVKKLEAENIGIQEQALRNHEPGSVGKMSRFISSWYASFFTS
For the molecule B4, the binding result in experiment [3] is given as “binds”.

B5: YFP^C-AtPSS1 (protein, UniProt Q8GW44 1-465)
chain: B4 chain
As for B5, the binding entry in experiment [4] is recorded as “binds”.
